In PubChem BioAssay AID2685 (National Center for Advancing Translational Sciences (NCATS), 2010):
The list shows a part of the results. The main result of the screen is listed elsewhere. These columns were measured beside it and carry no call. Compounds called inactive in the main read-out are mostly missing here. The note in brackets gives the kind of curve behind each potency; many fits are weak.

Experiment: qHTS Assay for Lipid Storage Modulators in Drosophila S3 Cells;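 as to cell number change: cells counted by Cell Tracker Red CMTPX staining in the red channel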
Details: BODIPY lipid droplet fluorescence, 18-24 h; for cell number change: measured here: cell count max response, cells fed with added oleic acid
Method in brief: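 Drosophila S3 cells got compounds at several concentrations plus oleic acid (400 uM solution). Laser-scanning cytometry with 488 nm excitation read lipid droplets at 500-530 nm and cells at 575-640 nm. Percent activity was relative to 20 uM Triacsin C.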

[1] = measured here: cell number channel AC50, cells fed with added oleic acid
[2] = measured here: lipid fluorescence (Fed channel) AC50, cells fed with added oleic acid

Compound | cell number change [%] | AC50 [1] | AC50 [2]
Cc1ccc(-n2ncc3c(Nc4cccc(C(=O)O)c4)ncnc32)cc1 | -27.4 | 0.651 µM [falling, full curve] | –
CCCOc1ccc(C(=O)CCC(=O)OCC(=O)Nc2cc(C)on2)cc1 | 1.29 | – | 23.1 µM [falling, partial curve]
O=C(CC(Cc1ccccc1)c1ccco1)NCc1ccco1 (stereo not given) | 25.9 | – | 9.2 µM [rising, partial curve]
CCOC(=O)Cn1c(=O)oc2cc(S(=O)(=O)N(C)c3cccc(C)c3)ccc21 | 13.7 | – | –
COc1ccc(NC(=O)CCc2nc3ccccc3s2)c(OC)c1 | 9.18 | 0.411 µM [falling, single point] | –
CSc1ccccc1NC(=O)Cn1c([N+](=O)[O-])cnc1C | 31.2 | 29.1 µM [rising, single point] | –
O=C(NCC(c1cccs1)N1CCOCC1)C1CCN(S(=O)(=O)c2cccc(C(F)(F)F)c2)CC1 (stereo not given) | – | – | 29.1 µM [rising, single point]
c1cnn(-c2cc(N3CCOCC3)ncn2)c1 | -19 | 3.26 µM [falling, full curve, poor fit] | 0.58 µM [falling, single point]
O=C(COC(=O)c1ccncc1)c1ccccc1 | -51.6 | 0.731 µM [falling, partial curve] | –
O=C(Nc1c[nH]c(=O)[nH]c1=O)c1ccccc1Cl | 11.3 | – | –
CC(=O)c1ccc(OCc2cc(C(=O)N(C)Cc3ccccn3)no2)cc1 | 16.2 | – | –
COc1ccccc1NS(=O)(=O)c1ccc(C(=O)NCCCN2CCCC2=O)cc1 | 7.11 | – | 0.146 µM [rising, full curve, poor fit]
CCC(=O)Nc1nc(C)nc(C)c1C(C)=O | -19.8 | 0.0731 µM [falling, full curve, poor fit] | –
O=C(CC1S/C(=N\S(=O)(=O)c2ccccc2)N(c2ccccc2)C1=O)Nc1ccc(F)cc1 (stereo not given) | 36.2 | 29.1 µM [rising, single point] | –
C=CCn1c(C(C)NC(=O)c2ccccc2C)n[nH]c1=S (stereo not given) | 22.4 | – | 1.3 µM [rising, single point]
Cc1ccc(C)c(NC(=O)CN(C)C(=O)c2ccccc2OCc2ccccc2Cl)c1 | -0.556 | – | 1.84 µM [rising, partial curve, poor fit]
O=C(NCc1ccccc1)C1=C[C@H](c2ccc3c(c2)OCO3)C[C@H](OCCCCO)O1 | 3.18 | – | 0.92 µM [rising, full curve, poor fit]
CN(CCNC(=O)C1(O)c2ccccc2NC(=O)N1c1ccccc1)Cc1ccccc1 (stereo not given) | -22.7 | 0.651 µM [falling, full curve, poor fit] | 3.66 µM [falling, full curve]
C/C(=N\NS(=O)(=O)c1ccc(Cl)c([N+](=O)[O-])c1)c1cc2ccccc2o1 | 16.6 | – | –
O=C(C1=C[C@@H](c2ccc(C(F)(F)F)cc2)C[C@@H](OCCCCO)O1)N1CCN(Cc2ccc3c(c2)OCO3)CC1 | -12.7 | – | 14.6 µM [falling, partial curve]

Part of the list above in another layout.
CCC(=O)Nc1nc(C)nc(C)c1C(C)=O
  cell number change [%]: -19.8
  AC50 [1]: 0.0731 µM [falling, full curve, poor fit]
O=C(CC1S/C(=N\S(=O)(=O)c2ccccc2)N(c2ccccc2)C1=O)Nc1ccc(F)cc1 (stereo not given)
  cell number change [%]: 36.2
  AC50 [1]: 29.1 µM [rising, single point]

Next part

Compound | cell number change [%] | AC50 [1] | AC50 [2]
C=CCn1c(C)nnc1SCC(=O)Nc1cc(S(=O)(=O)N2CCCC2)ccc1Cl | -14.8 | – | 6.51 µM [falling, single point]
N#Cc1c(/N=C/c2ccc(-c3ccc(C(=O)O)c(Cl)c3)o2)sc2c1CCCC2 | -50.1 | 0.82 µM [falling, full curve] | 0.731 µM [falling, single point]
CC(C)C1Oc2ccccc2N(CC(=O)N2CCOCC2)C1=O (stereo not given) | -11.5 | – | –
O=C1CCc2cc(S(=O)(=O)Nc3ccccc3)ccc2N1 | -13.1 | – | 0.00461 µM [rising, full curve, poor fit]
CCOC(=O)c1ccc(N=c2sc(C(=O)OC)cc(=O)n2Cc2ccc3c(c2)OCO3)cc1 | 65.9 | 1.03 µM [rising, full curve, poor fit] | 0.651 µM [rising, full curve, poor fit]
CC(C)C(=O)NC(=S)Nc1ccc(S(=O)(=O)NC2CCCCC2)cc1 | -23.4 | – | 1.64 µM [rising, partial curve, poor fit]
COc1ccc(N2CCN(C(=O)c3cccc(S(=O)(=O)N4CCOCC4)c3)CC2)cc1 | -7.9 | – | 0.13 µM [falling, full curve, poor fit]
CC1CCN(CC(=O)Nc2ccc(S(=O)(=O)N3CCCCC3)cc2)CC1 | -3.17 | – | –
CCOC(=O)[C@H]1[C@H]2COc3ccc(C)cc3[C@@H]2N2C(=O)CN(Cc3ccco3)C(=O)[C@@]12C | -33.8 | 29.1 µM [falling, single point] | 29.1 µM [rising, single point]
CCCn1c(C)cc(C(=O)COC(=O)CN=C2NS(=O)(=O)c3ccccc32)c1C | – | – | 0.146 µM [falling, full curve, poor fit]
O=C(Nc1nc2c(F)cc(F)cc2s1)c1ccccn1 | -7.08 | – | 6.51 µM [rising, single point]
COc1ccc(NC(=O)CN2CCN(CC#N)CC2)cc1 | -11.1 | – | 6.51 µM [rising, single point]
Cc1ccc2nc3c(c(C(=O)OC4CCOC4=O)c2c1)CCCC3 (stereo not given) | 95.7 | 20.6 µM [rising, partial curve] | 29.1 µM [rising, single point]
COC(=O)[C@@]12CCCCN1[C@H](c1ccc(-c3ccccc3)cc1)[C@H]1C(=O)N(C)C(=O)[C@H]12 | -37.1 | 16.4 µM [falling, single point] | 29.1 µM [falling, single point]
N#Cc1c(-c2ccccc2)nc(SCC(=O)Nc2ccccc2)[nH]c1=O | 13.1 | – | 23.1 µM [rising, single point]
O=C(O)CSC1=NC(=Nc2ccc(Cl)cc2)C2(CCCCC2)N1c1cccc(C(=O)O)c1 | -55.2 | 29.1 µM [falling, single point] | 20.6 µM [falling, single point]
CC(NC(=O)c1ccc2c(=O)n3c(nc2c1)CCC3)c1ccc(S(N)(=O)=O)cc1 (stereo not given) | -30.3 | 0.103 µM [falling, full curve, poor fit] | –
CCOc1ccc(C(=O)NNC2CC(=O)N(Cc3ccc(Cl)cc3)C2=O)cc1OC (stereo not given) | 5.08 | – | 4.11 µM [rising, single point]
O=C(O)CCCCCNC(=O)C(=O)C1C(=O)Nc2ccccc21 (stereo not given) | 7.18 | – | 5.17 µM [falling, single point]
CC(=O)Nc1ccc(NC(=O)C/C(C)=N/NC(=O)c2cccc3ccccc23)cc1 | 3.48 | – | –

Compound | cell number change [%] | AC50 [1] | AC50 [2]
COc1ccc(CCn2c(-c3cc([N+](=O)[O-])cc([N+](=O)[O-])c3)nc3nc4ccccc4nc32)cc1 | 18.2 | – | –
Cc1c(NS(=O)(=O)c2cc(C(=O)OCC(=O)N3CCC(C)CC3)ccc2Cl)c(=O)n(-c2ccccc2)n1C | 22.6 | 0.291 µM [rising, full curve, poor fit] | –
COc1ccc(C2=NNC(c3cccnc3)=Nc3ccc(OC)cc32)cc1 | – | – | 0.58 µM [falling, single point]
CCOC(=O)C1CCN(Cc2ccc(O)c3ncccc23)CC1 | -52 | 16.4 µM [falling, partial curve] | 16.4 µM [falling, partial curve]
Cc1cccc(NC(=O)c2nc[nH]c2C(=O)NCCCCCNC(=O)OC(C)(C)C)c1 | -37.4 | 25.9 µM [falling, single point] | 29.1 µM [falling, single point]
Cc1ccc(CNC(=O)C2CCN(S(=O)(=O)c3ccc(Br)s3)CC2)cc1 | 33.3 | 29.1 µM [rising, single point] | –
COc1ccc(S(=O)(=O)Nc2c(C)nc3nc[nH]n3c2=O)cc1 | -18.6 | 6.51 µM [falling, single point] | 6.51 µM [falling, single point]
CCC(c1nnnn1CC1CCCO1)N(CCCO)Cc1cc2cccc(C)c2[nH]c1=O (stereo not given) | 3.87 | – | –
Cc1ccc(C)c2c1sc(=NC(=O)CN1C(=O)CCC1=O)n2C | 7.74 | – | 6.51 µM [rising, single point]
CN(C)c1ccc(C(=O)Nc2cccc(S(=O)(=O)NC3=NCCCCC3)c2)cc1 | 24.8 | – | –
Cc1ccnc(NC(=O)c2ccc(C(=O)c3ccccc3)cc2)c1 | -54.9 | 23.1 µM [falling, partial curve, poor fit] | 23.1 µM [falling, partial curve]
O=C(O)C1C2C=CC(O2)C1C(=O)NCCCn1ccnc1 (stereo not given) | -9.49 | – | 0.00461 µM [falling, full curve, poor fit]
COCc1cc(=O)[nH]c(-c2ccccc2)n1 | -32.8 | 0.231 µM [falling, full curve] | 3.66 µM [falling, partial curve, poor fit]
CC(=O)Nc1c(O)nc(SCc2ccc(Cl)cc2)[nH]c1=O | 24.7 | – | 0.231 µM [rising, full curve]
CN(C)c1nc(NC(C)(C)C)nc(NC(C)(C)C)n1 | -17.3 | – | 6.51 µM [rising, single point]
O=C(CCCOc1ccccc1)Nc1cccc(S(=O)(=O)N2CCCCCC2)c1 | – | – | 1.03 µM [falling, full curve]
COc1ccc(-c2[nH]c3ccccc3c2SCCN)cc1 | 17.1 | – | –
C=CCN1C(=O)C(Cc2ccc(F)cc2)S/C1=N/N=C/c1cccs1 (stereo not given) | 21.4 | 1.84 µM [rising, full curve, poor fit] | 2.31 µM [rising, single point]
